According to the supplement of paper PMC8728848:
The other results are listed elsewhere or left out.

Legend:
Test in all cases: glycan array binding signal (z-score within array); higher = stronger binding
Conditions in all cases: glycan notation: IUPAC condensed, linker removed
[1] = target: Gal(b1-4)GlcNAc(b1-3)Gal(b1-4)GlcNAc(b1-3)Gal(b1-4)GlcNAc(b1-3)Gal(b1-4)GlcNAc(b1-2)Man(a1-3)[Gal(b1-4)GlcNAc(b1-3)Gal(b1-4)GlcNAc(b1-3)Gal(b1-4)GlcNAc(b1-3)Gal(b1-4)GlcNAc(b1-2)Man(a1-6)]Man(b1-4)GlcNAc(b1-4)[Fuc(a1-6)]GlcNAc
Summary of the method: (§1)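 The binding signal is a Z-score computed within each array. Data were drawn from 3228 arrays in the Consortium for Functional Glycomics database, restricted to those with a known protein sequence. Scores were averaged over arrays of the same protein sequence at different concentrations or buffers, and over linkers, and negative values can be taken as non-binding.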

[2] = target: Gal(b1-4)GlcNAc(b1-3)Gal(b1-4)GlcNAc(b1-3)Gal(b1-4)GlcNAc(b1-3)Gal(b1-4)GlcNAc(b1-2)[Gal(b1-4)GlcNAc(b1-3)Gal(b1-4)GlcNAc(b1-3)Gal(b1-4)GlcNAc(b1-3)Gal(b1-4)GlcNAc(b1-6)]Man(a1-6)[Gal(b1-4)GlcNAc(b1-3)Gal(b1-4)GlcNAc(b1-3)Gal(b1-4)GlcNAc(b1-3)Gal(b1-4)GlcNAc(b1-2)Man(a1-3)]Man(b1-4)GlcNAc(b1-4)[Fuc(a1-6)]GlcNAc
Summary of the method: as §1

[3] = target: Gal(b1-4)GlcNAc(b1-3)Gal(b1-4)GlcNAc(b1-3)Gal(b1-4)GlcNAc(b1-3)Gal(b1-4)GlcNAc(b1-3)Gal(b1-4)GlcNAc(b1-2)Man(a1-3)[Gal(b1-4)GlcNAc(b1-3)Gal(b1-4)GlcNAc(b1-3)Gal(b1-4)GlcNAc(b1-3)Gal(b1-4)GlcNAc(b1-3)Gal(b1-4)GlcNAc(b1-2)Man(a1-6)]Man(b1-4)GlcNAc(b1-4)GlcNAc
Summary of the method: as §1

[4] = target: Gal(b1-4)GlcNAc(b1-3)Gal(b1-4)GlcNAc(b1-3)Gal(b1-4)GlcNAc(b1-3)Gal(b1-4)GlcNAc(b1-3)Gal(b1-4)GlcNAc(b1-2)Man(a1-3)[Gal(b1-4)GlcNAc(b1-3)Gal(b1-4)GlcNAc(b1-3)Gal(b1-4)GlcNAc(b1-3)Gal(b1-4)GlcNAc(b1-3)Gal(b1-4)GlcNAc(b1-2)Man(a1-6)]Man(b1-4)GlcNAc(b1-4)[Fuc(a1-6)]GlcNAc
Summary of the method: as §1

[5] = target: Gal(b1-4)GlcNAc(b1-3)Gal(b1-4)GlcNAc(b1-3)Gal(b1-4)GlcNAc(b1-3)Gal(b1-4)GlcNAc(b1-3)Gal(b1-4)GlcNAc(b1-2)[Gal(b1-4)GlcNAc(b1-3)Gal(b1-4)GlcNAc(b1-3)Gal(b1-4)GlcNAc(b1-3)Gal(b1-4)GlcNAc(b1-3)Gal(b1-4)GlcNAc(b1-6)]Man(a1-6)[Gal(b1-4)GlcNAc(b1-3)Gal(b1-4)GlcNAc(b1-3)Gal(b1-4)GlcNAc(b1-3)Gal(b1-4)GlcNAc(b1-3)Gal(b1-4)GlcNAc(b1-2)Man(a1-3)]Man(b1-4)GlcNAc(b1-4)[Fuc(a1-6)]GlcNAc
Summary of the method: as §1

[6] = target: Gal(b1-4)GlcNAc(b1-3)Gal(b1-4)GlcNAc(b1-3)Gal(b1-4)GlcNAc(b1-3)Gal(b1-4)GlcNAc(b1-3)Gal(b1-4)GlcNAc(b1-3)Gal(b1-4)GlcNAc(b1-2)Man(a1-3)[Gal(b1-4)GlcNAc(b1-3)Gal(b1-4)GlcNAc(b1-3)Gal(b1-4)GlcNAc(b1-3)Gal(b1-4)GlcNAc(b1-3)Gal(b1-4)GlcNAc(b1-3)Gal(b1-4)GlcNAc(b1-2)Man(a1-6)]Man(b1-4)GlcNAc(b1-4)GlcNAc
Summary of the method: as §1

[7] = target: Gal(b1-4)GlcNAc(b1-3)Gal(b1-4)GlcNAc(b1-3)GalNAc
Summary of the method: as §1

[8] = target: Gal(b1-4)GlcNAc(b1-3)Gal(b1-4)GlcNAc(b1-3)[Gal(b1-4)GlcNAc(b1-3)Gal(b1-4)GlcNAc(b1-6)]GalNAc
Summary of the method: as §1

[9] = target: Gal(b1-4)GlcNAc(b1-3)Gal(b1-4)GlcNAc(b1-6)[Gal(b1-3)]GalNAc
Summary of the method: as §1

[10] = target: Gal(b1-4)GlcNAc(b1-3)Gal(b1-4)[Fuc(a1-3)]GlcNAc(b1-3)Gal(b1-4)[Fuc(a1-3)]GlcNAc
Summary of the method: as §1

[11] = target: Gal(b1-4)GlcNAc(b1-3)GalNAc
Summary of the method: as §1

[12] = target: Gal(b1-4)GlcNAc(b1-3)[Fuc(a1-3)GlcNAc(b1-6)]Gal(b1-4)Glc
Summary of the method: as §1

[13] = target: Gal(b1-4)GlcNAc(b1-3)[Gal(b1-4)GlcNAc(b1-6)]Gal(b1-4)GlcNAc
Summary of the method: as §1

[14] = target: Gal(b1-4)GlcNAc(b1-3)[GlcNAc(b1-6)]Gal(b1-4)GlcNAc
Summary of the method: as §1

[15] = target: Gal(b1-4)GlcNAc(b1-6)Gal(b1-4)GlcNAc
Summary of the method: as §1

[16] = target: Gal(b1-4)GlcNAc(b1-6)GalNAc
Summary of the method: as §1

[17] = target: Gal(b1-4)GlcNAc(b1-6)[Gal(b1-3)]GalNAc
Summary of the method: as §1

[18] = target: Gal(b1-4)GlcNAc(b1-6)[Gal(b1-4)GlcNAc(b1-3)]GalNAc
Summary of the method: as §1

[19] = target: Gal(b1-4)GlcNAc6P
Summary of the method: as §1

[20] = target: Gal(b1-6)Gal
Summary of the method: as §1

[21] = target: Gal3S(b1-3)GalNAc
Summary of the method: as §1

[22] = target: Gal3S(b1-3)GlcNAc
Summary of the method: as §1

[23] = target: Gal3S(b1-3)[Fuc(a1-4)]GlcNAc
Summary of the method: as §1

[24] = target: Gal3S(b1-4)Glc
Summary of the method: as §1

[25] = target: Gal3S(b1-4)Glc6S
Summary of the method: as §1

[26] = target: Gal3S(b1-4)GlcNAc
Summary of the method: as §1

[27] = target: Gal3S(b1-4)[Fuc(a1-3)]Glc6S
Summary of the method: as §1

[28] = target: Gal3S(b1-4)[Fuc(a1-3)]GlcNAc
Summary of the method: as §1

[29] = target: Gal3S(b1-4)[Fuc(a1-3)]GlcNAc6S
Summary of the method: as §1

[30] = target: Gal3S4S(b1-4)GlcNAc
Summary of the method: as §1

[31] = target: Gal3S6S(b1-4)GlcNAc
Summary of the method: as §1

[32] = target: Gal3S6S(b1-4)GlcNAc6S
Summary of the method: as §1

[33] = target: Gal4S(b1-4)GlcNAc
Summary of the method: as §1

[34] = target: Gal4S6S(b1-4)GlcNAc
Summary of the method: as §1

[35] = target: Gal6P(b1-4)GlcNAc
Summary of the method: as §1

[36] = target: Gal6S(b1-3)GlcNAc
Summary of the method: as §1

[37] = target: Gal6S(b1-3)GlcNAc6S
Summary of the method: as §1

[38] = target: Gal6S(b1-4)Glc
Summary of the method: as §1

B1: EUL D1A (Oryza sativa) (protein)
chain: MFGFGHHHNQAPAAPSDPNQIFKIFCRANENYCLTVRDSAVVLAPVNPKDEHQHWFKDMRFSTKVKDGEGMPAFALVNKATGLAVKHSLGQSHPVKLVPFNPEYEDASVLWTESKDVGKGFRCIRMVNNTRLNLDAFHGDKDHGGVRDGTTVVLWEWCKGDNQSWKILPWGPEAHSSSPGAATACTIGGVPVHTVRVFSAAGEDYCLTVRNGTACLAPKNPRDDYQHWIKDMRHSNKIRDEEGYPAFALVNKVTGEAIKHSTGQGHPVKLVPYNPEYQDESVLWTESKDVGKGFRCIRMVNNIYLNFDAFHGDKDHGGIHDGTEIVLWKWCEGDNQRWKILPWILEQKLISEEDLNSAVDHHHHHH
[1]
  glycan array binding signal (z-score): 1.99
[2]
  glycan array binding signal (z-score): 2.71
[3]
  glycan array binding signal (z-score): 0.967
[4]
  glycan array binding signal (z-score): 0.176
[5]
  glycan array binding signal (z-score): 1.83
[6]
  glycan array binding signal (z-score): 0.339
[7]
  glycan array binding signal (z-score): 0.95
[8]
  glycan array binding signal (z-score): 1.06
[9]
  glycan array binding signal (z-score): 2.71
[10]
  glycan array binding signal (z-score): -0.649
[11]
  glycan array binding signal (z-score): -0.127
[12]
  glycan array binding signal (z-score): -1.18
[13]
  glycan array binding signal (z-score): -0.866
[14]
  glycan array binding signal (z-score): 0.786
[15]
  glycan array binding signal (z-score): -1.43
[16]
  glycan array binding signal (z-score): 0.031
[17]
  glycan array binding signal (z-score): -0.219
[18]
  glycan array binding signal (z-score): 0.892
[19]
  glycan array binding signal (z-score): -1.15
[20]
  glycan array binding signal (z-score): -1.2
[21]
  glycan array binding signal (z-score): -0.294
[22]
  glycan array binding signal (z-score): 0.344
[23]
  glycan array binding signal (z-score): 2.28
[24]
  glycan array binding signal (z-score): 0.794
[25]
  glycan array binding signal (z-score): 0.17
[26]
  glycan array binding signal (z-score): 1
[27]
  glycan array binding signal (z-score): 2.51
[28]
  glycan array binding signal (z-score): 0.926
[29]
  glycan array binding signal (z-score): -0.073
[30]
  glycan array binding signal (z-score): 0.508
[31]
  glycan array binding signal (z-score): 0.639
[32]
  glycan array binding signal (z-score): 0.718
[33]
  glycan array binding signal (z-score): 0.561
[34]
  glycan array binding signal (z-score): -0.086
[35]
  glycan array binding signal (z-score): -0.831
[36]
  glycan array binding signal (z-score): -0.532
[37]
  glycan array binding signal (z-score): -0.305
[38]
  glycan array binding signal (z-score): 0.689
